Results are given in words; binding and its absence hold for the method and conditions named. Some binding calls cover weakened binding; strength is not graded here.
Molecular target: collagen type I (Sigma-Aldrich C7774) (UniProt P02452)
Experiment: single-particle TIRFM count of sEVs bound to ECM-coated glass; ECM protein coated on casein-treated glass (100 μg/ml fibronectin, 50 μg/ml laminin or 100 μg/ml collagen type I, 2 h, 37°C); fluorescent sEVs (tetraspanin-Halo7 labelled) from WT, integrin-KO, α6-rescued or α6 R155A PC3 cells applied for 1 h at 37°C, washed twice with HBSS; number on casein-coated glass subtracted; only the target purified

Protein sequences, listed by entry. Tags and fused reporters are not part of them. Lines headed by an entry give the natural chain unless they say otherwise; changes in a name come on top.
UniProt P02452: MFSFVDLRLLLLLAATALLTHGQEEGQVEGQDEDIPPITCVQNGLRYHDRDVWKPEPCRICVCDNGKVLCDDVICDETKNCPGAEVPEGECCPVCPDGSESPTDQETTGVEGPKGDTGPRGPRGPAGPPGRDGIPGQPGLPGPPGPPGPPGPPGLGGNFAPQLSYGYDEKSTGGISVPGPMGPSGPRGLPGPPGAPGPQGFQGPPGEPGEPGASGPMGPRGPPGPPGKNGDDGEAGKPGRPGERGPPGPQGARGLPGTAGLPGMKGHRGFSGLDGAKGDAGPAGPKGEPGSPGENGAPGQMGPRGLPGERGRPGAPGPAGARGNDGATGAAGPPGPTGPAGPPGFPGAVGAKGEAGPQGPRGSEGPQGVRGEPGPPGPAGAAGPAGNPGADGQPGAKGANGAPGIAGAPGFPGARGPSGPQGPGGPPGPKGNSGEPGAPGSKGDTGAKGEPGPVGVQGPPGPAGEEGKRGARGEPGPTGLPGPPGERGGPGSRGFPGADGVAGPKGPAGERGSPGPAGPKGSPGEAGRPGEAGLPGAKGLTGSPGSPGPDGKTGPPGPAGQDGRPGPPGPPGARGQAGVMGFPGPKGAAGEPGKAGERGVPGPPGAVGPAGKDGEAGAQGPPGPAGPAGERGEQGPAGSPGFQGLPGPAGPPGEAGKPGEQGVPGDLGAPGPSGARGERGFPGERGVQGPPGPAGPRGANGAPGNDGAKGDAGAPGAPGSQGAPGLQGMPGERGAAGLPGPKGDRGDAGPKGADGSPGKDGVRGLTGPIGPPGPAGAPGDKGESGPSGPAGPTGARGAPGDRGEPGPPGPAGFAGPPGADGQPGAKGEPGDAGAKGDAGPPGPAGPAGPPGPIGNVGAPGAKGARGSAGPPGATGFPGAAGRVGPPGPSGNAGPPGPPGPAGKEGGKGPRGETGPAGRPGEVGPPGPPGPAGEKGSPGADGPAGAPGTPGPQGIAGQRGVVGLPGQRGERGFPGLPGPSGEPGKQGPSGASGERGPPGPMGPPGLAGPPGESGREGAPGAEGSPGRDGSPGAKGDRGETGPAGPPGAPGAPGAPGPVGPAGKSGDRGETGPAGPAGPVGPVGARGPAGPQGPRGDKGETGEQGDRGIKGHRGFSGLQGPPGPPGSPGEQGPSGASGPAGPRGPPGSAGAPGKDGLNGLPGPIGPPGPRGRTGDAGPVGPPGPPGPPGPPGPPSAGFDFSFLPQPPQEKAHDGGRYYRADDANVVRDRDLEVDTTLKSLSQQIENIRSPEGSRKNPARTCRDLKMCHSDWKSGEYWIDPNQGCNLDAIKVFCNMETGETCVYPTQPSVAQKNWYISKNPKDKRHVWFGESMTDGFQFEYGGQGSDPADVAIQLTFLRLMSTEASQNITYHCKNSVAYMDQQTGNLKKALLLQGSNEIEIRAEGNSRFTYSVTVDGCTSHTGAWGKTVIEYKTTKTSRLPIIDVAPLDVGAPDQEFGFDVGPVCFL
UniProt P17301: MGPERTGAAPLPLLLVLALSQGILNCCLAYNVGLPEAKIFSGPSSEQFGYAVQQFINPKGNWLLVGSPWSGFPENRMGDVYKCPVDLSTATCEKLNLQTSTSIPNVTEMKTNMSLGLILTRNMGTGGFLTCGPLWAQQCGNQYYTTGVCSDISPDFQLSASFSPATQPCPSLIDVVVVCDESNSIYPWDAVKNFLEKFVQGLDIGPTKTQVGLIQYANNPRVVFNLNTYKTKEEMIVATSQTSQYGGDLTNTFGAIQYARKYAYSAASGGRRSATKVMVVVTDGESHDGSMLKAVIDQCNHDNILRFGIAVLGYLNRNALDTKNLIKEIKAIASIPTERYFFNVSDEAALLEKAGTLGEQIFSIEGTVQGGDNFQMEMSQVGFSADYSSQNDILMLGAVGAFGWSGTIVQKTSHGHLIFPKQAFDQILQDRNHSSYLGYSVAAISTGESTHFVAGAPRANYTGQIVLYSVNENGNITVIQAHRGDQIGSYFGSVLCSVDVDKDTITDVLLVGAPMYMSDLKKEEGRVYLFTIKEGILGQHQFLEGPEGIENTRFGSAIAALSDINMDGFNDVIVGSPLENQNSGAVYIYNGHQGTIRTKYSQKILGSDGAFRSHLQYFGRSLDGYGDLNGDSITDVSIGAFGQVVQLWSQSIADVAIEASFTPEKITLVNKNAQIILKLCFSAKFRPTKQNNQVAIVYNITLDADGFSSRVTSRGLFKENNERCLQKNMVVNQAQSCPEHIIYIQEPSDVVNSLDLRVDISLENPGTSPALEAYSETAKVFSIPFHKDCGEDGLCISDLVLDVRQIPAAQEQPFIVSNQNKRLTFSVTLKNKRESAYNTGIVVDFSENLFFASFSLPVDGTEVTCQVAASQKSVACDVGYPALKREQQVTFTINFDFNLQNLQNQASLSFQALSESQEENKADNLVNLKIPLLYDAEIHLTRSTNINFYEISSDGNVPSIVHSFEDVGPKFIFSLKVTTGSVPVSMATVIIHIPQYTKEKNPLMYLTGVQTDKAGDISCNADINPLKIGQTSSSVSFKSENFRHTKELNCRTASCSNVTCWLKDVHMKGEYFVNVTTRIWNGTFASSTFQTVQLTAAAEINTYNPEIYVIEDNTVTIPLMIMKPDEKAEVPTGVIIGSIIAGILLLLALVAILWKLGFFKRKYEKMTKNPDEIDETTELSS

In the case of “integrin α2β1 heterodimer in PC3-derived sEVs (from UniProt P17301 30-1181; P05556-1 21-798) (complex)”, the binding is reported as “binds”.

From article PMC12042775
